The list shows a part of the results. Rule as the data show it: active = 2-fold of DMSO or more and inactive = the rest. Single values of this set are uncertain. Some low values are a fixed figure set by the source, not a measured ratio.

The subject of this assay is CM7/1-hgem mouse ES cell-derived cardiomyocytes. Description: maximal number of mAG-hGem(1/110)-positive cardiomyocytes over 96 h, fold-change vs DMSO; higher = more cardiomyocyte cell cycle activity. The conditions noted are these: 1 µM; 96 (max over 12 h time points) h.
In the case of `COc1ccc2c(c1)OCC(Cc1ccc(OC)c(O)c1)C2=O` (centres undefined), the maximal number was inactive: 0. In the case of `CC(=O)O[C@@H]1C[C@H]2C(C)(C)C(=O)C=C[C@]2(C)[C@H]2CC[C@@]3(C)[C@H](c4ccoc4)OC(=O)[C@H]4O[C@]43[C@@]21C` it was inactive: 1; in that of `CCN(CC)C(=O)C1(c2ccccc2)CC1CN` (centres undefined), inactive: 1; in that of `CCCCCCCCCCOc1cc2c(O)c(C(=O)OCC)cnc2cc1OCC`, inactive: 1.

`COc1cc(OC)c(C(C)=O)c(O)c1C`: the maximal number was inactive: 1.

For the compound `C[C@H]1[C@H](OC(=O)CCC(=O)O)O[C@@H]2O[C@@]3(C)CC[C@H]4[C@H](C)CC[C@@H]1[C@@]24OO3`, the maximal number was inactive: 1. Under `CCCCCCCCCCOc1c(OC)cc(C(N)=O)cc1OC` stands inactive: 1; under `COc1ccc(-c2cc(=O)c3c(OC(C)=O)cc(OC(C)=O)cc3o2)cc1`, inactive: 1; under `N#Cc1ccc(C(c2ccc(C#N)cc2)n2cncn2)cc1`, inactive: 1. In the case of `COc1ccc2c(c1)O[C@@H]1COc3cc(OC)c(OC)cc3[C@@H]1C2=O` it was inactive: 1.

With `C[C@H](Cn1cnc2c(N)ncnc21)OCP(=O)(O)O`, the maximal number is inactive: 1. Under `CC1(C)[C@@H](O)CC[C@]2(C)[C@H]3C(=O)C=C4[C@@H]5C[C@@](C)(C(=O)O)CC[C@]5(C)CC[C@@]4(C)[C@]3(C)CC[C@@H]12` stands inactive: 1; under `CC1(C)CC[C@]2(C)CC[C@]3(C)C(=CC[C@@H]4[C@@]5(C)CC[C@H](O)C(C)(C)[C@@H]5CC[C@]43C)[C@@H]2C1` [beta-AMYRIN], inactive: 0. Under `C[C@H](CCC(=O)O)[C@H]1CC[C@H]2[C@@H]3[C@H](O)C[C@@H]4C[C@H](O)CC[C@]4(C)[C@H]3CC[C@]12C` stands inactive: 0.

For the origin of these results see the supplement of paper PMC9549374.
